Construct, isoform or probe ends are uncertain for at least one entry. The comparison behind a weaker result is the experiment's own reference, which may not be listed here.
What was measured:
IGF2BP2 WT = IGF2BP2 WT (UniProt Q9Y6M1); experiment: EMSA; conditions: LightShift Chemiluminescent RNA EMSA kit binding buffer (composition not stated), 30 min, room temperature; 6% native PAGE, 0.5x TBE; recombinant protein; protein details: FLAG; label: 3'-biotin
YTHDC1 WT = YTHDC1 WT (UniProt Q96MU7); experiment: EMSA; conditions: LightShift Chemiluminescent RNA EMSA kit binding buffer (composition not stated), 30 min, room temperature; 6% native PAGE, 0.5x TBE; recombinant protein; protein details: FLAG; label: 3'-biotin

Chains of the proteins cited; added tags and fusions are not shown. Lines headed by an entry give the natural chain unless they say otherwise; changes in a name come on top.
UniProt Q9Y6M1: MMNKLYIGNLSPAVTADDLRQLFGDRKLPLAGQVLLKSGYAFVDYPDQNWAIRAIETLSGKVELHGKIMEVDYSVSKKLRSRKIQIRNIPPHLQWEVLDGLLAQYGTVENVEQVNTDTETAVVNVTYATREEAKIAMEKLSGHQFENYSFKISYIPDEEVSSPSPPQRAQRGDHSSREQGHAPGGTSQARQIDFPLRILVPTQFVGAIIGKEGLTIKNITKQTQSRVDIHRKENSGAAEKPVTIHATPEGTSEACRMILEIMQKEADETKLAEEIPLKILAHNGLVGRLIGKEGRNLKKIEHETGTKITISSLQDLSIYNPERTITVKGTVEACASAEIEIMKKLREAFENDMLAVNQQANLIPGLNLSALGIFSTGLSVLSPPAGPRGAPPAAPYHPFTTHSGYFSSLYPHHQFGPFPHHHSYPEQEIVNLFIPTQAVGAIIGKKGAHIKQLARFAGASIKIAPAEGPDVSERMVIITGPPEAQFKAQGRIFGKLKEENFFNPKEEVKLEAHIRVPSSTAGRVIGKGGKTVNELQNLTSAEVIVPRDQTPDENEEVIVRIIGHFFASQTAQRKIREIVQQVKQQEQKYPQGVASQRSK

Sequence	binding result (IGF2BP2 WT)	binding result (YTHDC1 WT)
CCUCACCACAAGGUAUCCUG [circNSUN2 mutant type (IGF2BP2 probe)]	binds more weakly	
AUAAGGUAUCCUGAAGAGCU [circNSUN2-m6A mutant type]		binds more weakly
